Test [1] addresses Flag-TRIM21 (in HEK293T) (human) (UniProt P19474). As to the kind of experiment: co-IP; HEK293T cells transfected with HA- and Flag-tagged plasmids; anti-Flag or anti-HA antibodies with Protein A/G magnetic beads, 4 °C overnight; IP lysis buffer 20 mM Tris-HCl pH 7.4, 1 mM EDTA, 150 mM NaCl, 1% NP-40; immunoblot. (A western blot detects proteins with antibodies after separation by electrophoresis.)

Chains of the proteins cited; added tags and fusions are not shown.
UniProt P19474: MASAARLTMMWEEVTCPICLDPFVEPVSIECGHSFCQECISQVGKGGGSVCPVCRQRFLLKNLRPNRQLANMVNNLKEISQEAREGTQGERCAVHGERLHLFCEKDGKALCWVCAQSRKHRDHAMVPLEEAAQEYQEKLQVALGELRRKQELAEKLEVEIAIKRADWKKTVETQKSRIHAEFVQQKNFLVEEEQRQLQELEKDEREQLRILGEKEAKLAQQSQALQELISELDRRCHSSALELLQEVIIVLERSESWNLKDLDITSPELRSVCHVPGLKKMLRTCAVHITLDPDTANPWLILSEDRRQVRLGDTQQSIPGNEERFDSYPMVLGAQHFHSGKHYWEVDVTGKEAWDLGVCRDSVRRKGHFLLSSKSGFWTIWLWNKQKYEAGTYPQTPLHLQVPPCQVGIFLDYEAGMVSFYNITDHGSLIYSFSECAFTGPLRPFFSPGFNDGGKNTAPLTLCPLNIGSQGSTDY

Test [2] addresses TRIM21, endogenous in MHCC-97H (human (endogenous in MHCC-97H)) (UniProt P19474). Briefly: co-IP; endogenous proteins; MHCC-97H cell lysates immunoprecipitated with anti-TRIM21 antibodies, immunoblotted with anti-FSP1 antibodies.
The next test concerns the target GST-TRIM21 (human) (UniProt P19474). As to the kind of experiment: pull-down; GST, GST-FSP1 or GST-TRIM21 from bacteria on GST magnetic beads, incubated with cell lysate at 4 °C overnight; 50 mM Tris-HCl pH 7.4, 0.5% NP-40, 1 mM EDTA, 150 mM NaCl; immunoblot; only the target purified.

No constants are given. Whether binding was seen depends on the method and setting. Binding seen in cells or lysates may run through a third protein. Some binding calls cover weakened binding; strength is not graded here. For part of these data: Sequences can lack the tags named with a protein.

B1: HA-FSP1 (in HEK293T) (protein, UniProt Q9BRQ8 1-373)
chain: MGSQVSVESGALHVVIVGGGFGGIAAASQLQALNVPFMLVDMKDSFHHNVAALRASVETGFAKKTFISYSVTFKDNFRQGLVVGIDLKNQMVLLQGGEALPFSHLILATGSTGPFPGKFNEVSSQQAAIQAYEDMVRQVQRSRFIVVVGGGSAGVEMAAEIKTEYPEKEVTLIHSQVALADKELLPSVRQEVKEILLRKGVQLLLSERVSNLEELPLNEYREYIKVQTDKGTEVATNLVILCTGIKINSSAYRKAFESRLASSGALRVNEHLQVEGHSNVYAIGDCADVRTPKMAYLAGLHANIAVANIVNSVKQRPLQAYKPGALTFLLSMGRNDGVGQISGFYVGRLMVRLTKSRDLFVSTSWKTMRQSPP
For B1, in test [1], the binding entry is given as “binds”.

B2: FSP1, endogenous in MHCC-97H (protein, UniProt Q9BRQ8 1-373)
chain: MGSQVSVESGALHVVIVGGGFGGIAAASQLQALNVPFMLVDMKDSFHHNVAALRASVETGFAKKTFISYSVTFKDNFRQGLVVGIDLKNQMVLLQGGEALPFSHLILATGSTGPFPGKFNEVSSQQAAIQAYEDMVRQVQRSRFIVVVGGGSAGVEMAAEIKTEYPEKEVTLIHSQVALADKELLPSVRQEVKEILLRKGVQLLLSERVSNLEELPLNEYREYIKVQTDKGTEVATNLVILCTGIKINSSAYRKAFESRLASSGALRVNEHLQVEGHSNVYAIGDCADVRTPKMAYLAGLHANIAVANIVNSVKQRPLQAYKPGALTFLLSMGRNDGVGQISGFYVGRLMVRLTKSRDLFVSTSWKTMRQSPP
In the case of B2, the binding result in test [2] is listed as “binds”.

B3: FSP1 of the cell lysate used in the GST pull-down (protein, UniProt Q9BRQ8 1-373)
chain: MGSQVSVESGALHVVIVGGGFGGIAAASQLQALNVPFMLVDMKDSFHHNVAALRASVETGFAKKTFISYSVTFKDNFRQGLVVGIDLKNQMVLLQGGEALPFSHLILATGSTGPFPGKFNEVSSQQAAIQAYEDMVRQVQRSRFIVVVGGGSAGVEMAAEIKTEYPEKEVTLIHSQVALADKELLPSVRQEVKEILLRKGVQLLLSERVSNLEELPLNEYREYIKVQTDKGTEVATNLVILCTGIKINSSAYRKAFESRLASSGALRVNEHLQVEGHSNVYAIGDCADVRTPKMAYLAGLHANIAVANIVNSVKQRPLQAYKPGALTFLLSMGRNDGVGQISGFYVGRLMVRLTKSRDLFVSTSWKTMRQSPP
With B3, the binding result in the test with GST-TRIM21 (human) is “binds”.

The values are drawn from publication PMC10582465.
